Data reported in US20140335050A1, “METHODS, COMPOSITIONS, AND KITS FOR THE TREATMENT OF CANCER” (The General Hospital Corporation, priority 2011, published 2014).
Some results were stated once for a whole list of compounds, not compound by compound. For part of these data: At least one structure is not confirmed: it was looked up by name or label, or the drawing left a doubt.

Legend:
Format in all cases: cell-based, human
[1] = test system: A375 MART::EGFP cell line; experiment: Melan-A/MART-1 promoter-driven EGFP reporter, flow cytometry; settings: transient exposure, EGFP assayed on day 3 (FIG. 12)
melanomas and gliomas = experiment: Intracellular staining for Melan-A/MART-1 and gp100, melanomas and gliomas exposed to hits (Table 10); settings: in most cell lines; three days (Table 10)
Method: FIG. 7 is a series of graphs showing intracellular staining and flow histograms used to generate data for Table 10. All cells were stained with an antibody to gp100. Thin line represents untreated cells, bold line represents cells treated for three days with 17-AAG (1 μg/ml). Numbers represent geometric mean of flow histograms.
A further orthogonal secondary screen is the measurement of Melan-A/MART-1 and gp100 in additional melanoma cell lines and gliomas in response to the primary hit candidates. […] If the compounds of interest increase antigen levels in multiple melanoma cell lines and two gliomas, the effects of the compounds are clearly not limited to a single melanoma cell type.
As for the primary screen, 17-AAG and aphidicolin, had the largest impact on EGFP stimulation, inducing 3-fold and 5-fold increases respectively. Four additional compounds: damnacanthal, flunarizine, OBAA, and dantrolene stimulated EGFP more than 2-fold. We then tested the ability of the hit compounds to induce antigen increases in a more diverse set of tumors including melanomas and gliomas. […]
Cells were fixed with 1% formaldehyde, permeabilized with 0.1% saponin, stained with monoclonal antibodies to melanocyte antigens. […] The level of EGFP was determined by flow cytometry of unfixed cells that were washed and resuspended in 1×PBS.

MU89 melanoma cells = experiment: Tumor cell/T cell co-culture IL-2 ELISA (Melan-A/MART-1 specific TCR Jurkat line J-TCR-M1 as responder); settings: hits re-tested over a wider dose range (FIG. 5)
Text: The assay relies on the use of an antigen-specific responder T cell line. […] The chosen TCR reacts specifically to a Melan-A/MART-1 decapeptide (26[…]35) presented by HLA-A2, with appropriate triggering of T cell activation. We then used a lentiviral vector system for transduction of this specific TCR into the J.RT3-T3.5 T cell line, a Jurkat cell derivative which fails to express endogenous surface TCR through a mutation in its beta chain.
We evaluated several candidate melanoma cell lines for the ability to stimulate the J-TCR-M1 cell line. Levels of Melan-A/MART-1 (determined by intracellular staining and flow cytometry) and corresponding levels of induced IL-2 (determined by coculture with J-TCR-M1 and IL-2 ELISA) were tested for different melanoma cell lines.
The 480 compounds were tested in six parallel 96 well plates. The first two columns (16 wells) of each plate were used for standards (8 wells), untreated controls (4 wells), and positive controls (4 wells). The other ten columns (80 wells) were used for testing compounds in separate wells. […]
The protocol for evaluation of the cytokine IL-2 was performed using a the BD OptEAI kit, human IL-2 ELISA set from BD Biosciences (San Diego, Calif.) following the manufacturer's recommendations. The absorbance 450 nm was read in a BioRad 3550 plate reader. […] IL-2 levels for experimental samples (pg/ml) were calculated from the standard curve. […]

Compound	Minimum exposure required to induce significant increases in Melan-A/MART-1 promoter EGFP reporter levels [1] [h]	Protein increase (Melan-A/MART-1, gp100 intracellular staining) (melanomas and gliomas) [fold]	IL-2 stimulation in repeat of the tumor T cell co-culture IL-2 ELISA (MU89 melanoma cells)
C=CCNC1=C2C[C@@H](C)C[C@H](OC)[C@H](O)[C@@H](C)/C=C(\C)[C@H](OC(N)=O)[C@@H](OC)/C=C\C=C(/C)C(=O)NC(=CC1=O)C2=O [17-AAG, 17-allylaminogeldanamycin]	≥ 24	–	–
CCc1cc(-c2n[nH]c(C)c2-c2ccc3c(c2)OCCO3)c(O)cc1O [CCT018159]	≥ 24	–	–
COc1c(C=O)c(O)cc2c1C(=O)c1ccccc1C2=O [Damnacanthal]	–	> 1.5	–
Fc1ccc(C(c2ccc(F)cc2)N2CCN(C/C=C/c3ccccc3)CC2)cc1 [Flunarizine]	–	> 1.5	1.5-2 fold
CC(C)NCCCn1c(Sc2cc3c(cc2I)OCO3)nc2c(N)ncnc21 [PU-H71]	≥ 24	–	–
